In PMC10380515 one finds binding data, which are given here for one molecule.

This assay addresses MIC19 (rat (endogenous in brain tissue)). Put plainly: co-IP; rat brain tissue lysate, sham group; MIC19 antibody (or normal rabbit IgG as negative control) with magnetic beads, 4 °C for at least 8 h; SAM50 detected by Western blot. In general terms: In western blotting, separated proteins are transferred to a membrane and probed.

Results are given in words; binding and its absence hold for the method and conditions named. In cells and extracts the contact can be indirect. A result given as binding can be weak or reduced; the word gives no strength.

B1: SAM50 (protein, UniProt Q6AXV4 1-469)
chain: MGTVHARSLEPLPSSGTDFGALGEEAEFVEVEPEAKQEILENKDVVVQHVHFDGLERTKDDIIICEIGEVFKAKNLIEVMRRSHEAREKLLRLGIFRQVDVLIDTCHGEDALPNGLDVTFEVTELRRLTGSYNTMVGNNEGSMVLGLKLPNLLGRAEKVTFQFSYGTKETSYGLSFFKPQPGNFEKNFSVNLYKVTGQFPWSSLRETDRGVSAEYSFPLCKTSHTVKWEGVWRELGCLARTASFAVRKESGHSLKSSLSHAMVIDSRNSSILPRRGALLKVNQELAGYTGGDVSFIKEDFELQLNKPLVLDSVFSTSLWGGMLVPIGDKLSSIADRFYLGGPTSVRGFSMHSIGPQSEGDYLGGEAYWAGGLHLYTPLPFRPGQGGFGELFRTHFFLNAGNLCNLNYGEGPRAHIRKLAECIRWSYGAGIVLRLGNIARLELNYCIPMGVQRGDRICDGVQFGAGIRFL
With B1, the binding result was “binds”.
